Source: PubChem BioAssay AID1224830 (NIAID, 2016)
In all, the deposit lists about 18,000 reagents; below is a part drawn at random. Of all reagents, about 2,900 (16%) got an active call. 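Calls are made per well; low scores hint the gene aids the LPS response, high scores that it dampens it.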 Repeated entries: four replicate wells of each siRNA pool.

- Purpose: 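Regulators of TLR4 signalling towards TNF-alpha in macrophage-like cells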 (primary screen)
- System: human THP-1 monocytic leukaemia cells, TNF dual-luciferase reporter clone, PMA-differentiated to macrophage-like cells
- Reagents: siRNA pool against human genes, 50 nM
- Duration: LPS for 4 h, given about 3 days after siRNA transfection
- Treatment: bacterial LPS (TLR4 ligand), 10 ng/ml
- Read-out: 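Ratio of firefly to renilla light, scaled to the plate median and expressed as a robust z-score per replicate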
- Direction: TNF reporter robust z-score: higher = stronger TNF reporter response to LPS
- Hit rule: 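a well is active when its z-score exceeds 2.8 or falls below -1.5; control wells carry no call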

| target gene | TNF reporter robust z-score | Outcome |
| --- | --- | --- |
| HRH2 (GeneID 3274) | -2.33 | active |
| HRH2 (GeneID 3274) | -1.61 | active |
| HRH2 (GeneID 3274) | -0.79 | inactive |
| HRH2 (GeneID 3274) | -1.94 | active |
| BCO1 (GeneID 53630) | 0.17 | inactive |
| BCO1 (GeneID 53630) | 1.09 | inactive |
| BCO1 (GeneID 53630) | 0.77 | inactive |
| BCO1 (GeneID 53630) | 0.82 | inactive |
| WRN (GeneID 7486) | -0.91 | inactive |
| WRN (GeneID 7486) | -0.44 | inactive |
| WRN (GeneID 7486) | -0.76 | inactive |
| WRN (GeneID 7486) | -0.48 | inactive |
| U2AF1 (GeneID 7307) | -0.65 | inactive |
| U2AF1 (GeneID 7307) | 0.73 | inactive |
| U2AF1 (GeneID 7307) | 0.15 | inactive |
| U2AF1 (GeneID 7307) | -0.24 | inactive |
| PCARE (GeneID 388939) | -0.31 | inactive |
| PCARE (GeneID 388939) | -0.33 | inactive |
| PCARE (GeneID 388939) | 0.33 | inactive |
| PCARE (GeneID 388939) | -0.4 | inactive |
| B4GALNT1 (GeneID 2583) | -0.68 | inactive |
| B4GALNT1 (GeneID 2583) | 0.09 | inactive |
| B4GALNT1 (GeneID 2583) | -0.39 | inactive |
| B4GALNT1 (GeneID 2583) | 0.28 | inactive |
| STYXL1 (GeneID 51657) | -0.75 | inactive |
| STYXL1 (GeneID 51657) | -0.3 | inactive |
| STYXL1 (GeneID 51657) | -0.81 | inactive |
| STYXL1 (GeneID 51657) | -0.83 | inactive |
| C10orf67 (GeneID 256815) | -1.11 | inactive |
| C10orf67 (GeneID 256815) | -0.36 | inactive |
| C10orf67 (GeneID 256815) | -1.44 | inactive |
| C10orf67 (GeneID 256815) | 0.54 | inactive |
| TMEM11 (GeneID 8834) | 0.66 | inactive |
| TMEM11 (GeneID 8834) | -0.01 | inactive |
| TMEM11 (GeneID 8834) | 0.6 | inactive |
| TMEM11 (GeneID 8834) | 2.51 | inactive |
| SAXO1 (GeneID 158297) | 0.71 | inactive |
| SAXO1 (GeneID 158297) | 0.94 | inactive |
| SAXO1 (GeneID 158297) | 2.04 | inactive |
| SAXO1 (GeneID 158297) | 2.01 | inactive |
| H4C2 (GeneID 8366) | -0.09 | inactive |
| H4C2 (GeneID 8366) | 0.01 | inactive |
| H4C2 (GeneID 8366) | 0.08 | inactive |
| H4C2 (GeneID 8366) | 0.5 | inactive |
| NDUFB9 (GeneID 4715) | -1.25 | inactive |
| NDUFB9 (GeneID 4715) | -0.42 | inactive |
| NDUFB9 (GeneID 4715) | -0.86 | inactive |
| NDUFB9 (GeneID 4715) | -1.17 | inactive |
| FBLN1 (GeneID 2192) | -0.53 | inactive |
| FBLN1 (GeneID 2192) | -0.08 | inactive |
| FBLN1 (GeneID 2192) | 1.29 | inactive |
| FBLN1 (GeneID 2192) | 0.97 | inactive |
| FGL1 (GeneID 2267) | 2.62 | inactive |
| FGL1 (GeneID 2267) | 2.31 | inactive |
| FGL1 (GeneID 2267) | 2.22 | inactive |
| FGL1 (GeneID 2267) | 2.9 | active |
| SPTLC3 (GeneID 55304) | 8.49 | active |
| SPTLC3 (GeneID 55304) | 0.91 | inactive |
| SPTLC3 (GeneID 55304) | -0.73 | inactive |
| SPTLC3 (GeneID 55304) | 0.74 | inactive |
| IFT38 (GeneID 23059) | -0.25 | inactive |
| IFT38 (GeneID 23059) | -0.6 | inactive |
| IFT38 (GeneID 23059) | -0.91 | inactive |
| IFT38 (GeneID 23059) | 0.06 | inactive |
| KRT1 (GeneID 3848) | 0.17 | inactive |
| KRT1 (GeneID 3848) | 1.49 | inactive |
| KRT1 (GeneID 3848) | 0.22 | inactive |
| KRT1 (GeneID 3848) | 0.85 | inactive |
| PGP (GeneID 283871) | 0.87 | inactive |
| PGP (GeneID 283871) | -0.1 | inactive |
| PGP (GeneID 283871) | -1.08 | inactive |
| PGP (GeneID 283871) | -0.42 | inactive |
| RBL2 (GeneID 5934) | 0.55 | inactive |
| RBL2 (GeneID 5934) | 1.35 | inactive |
| RBL2 (GeneID 5934) | 0.68 | inactive |
| RBL2 (GeneID 5934) | 1 | inactive |
| MRFAP1 (GeneID 93621) | 0.46 | inactive |
| MRFAP1 (GeneID 93621) | 0.37 | inactive |
| MRFAP1 (GeneID 93621) | 1.68 | inactive |
| MRFAP1 (GeneID 93621) | 1.13 | inactive |
| CATSPER3 (GeneID 347732) | 0.12 | inactive |
| CATSPER3 (GeneID 347732) | -0.65 | inactive |
| CATSPER3 (GeneID 347732) | -0.61 | inactive |
| CATSPER3 (GeneID 347732) | -0.29 | inactive |
| HS3ST6 (GeneID 64711) | -0.3 | inactive |
| HS3ST6 (GeneID 64711) | -0.66 | inactive |
| HS3ST6 (GeneID 64711) | -0.16 | inactive |
| METAP1D (GeneID 254042) | 0.81 | inactive |
| METAP1D (GeneID 254042) | 1.37 | inactive |
| METAP1D (GeneID 254042) | 0.88 | inactive |
| METAP1D (GeneID 254042) | 0.34 | inactive |
| CDH18 (GeneID 1016) | -0.92 | inactive |
| CDH18 (GeneID 1016) | -1.49 | inactive |
| CDH18 (GeneID 1016) | -0.75 | inactive |
| CDH18 (GeneID 1016) | -1.01 | inactive |
| TBL1XR1 (GeneID 79718) | 1.78 | inactive |
| TBL1XR1 (GeneID 79718) | 1.09 | inactive |
| TBL1XR1 (GeneID 79718) | 2.64 | inactive |
| TBL1XR1 (GeneID 79718) | 3.32 | active |
| SFI1 (GeneID 9814) | 0.58 | inactive |
| SFI1 (GeneID 9814) | -0.28 | inactive |
| SFI1 (GeneID 9814) | 0.62 | inactive |
| SFI1 (GeneID 9814) | 0.72 | inactive |
| ITGB1BP1 (GeneID 9270) | -1.81 | active |
| ITGB1BP1 (GeneID 9270) | -1.62 | active |
| ITGB1BP1 (GeneID 9270) | -2.02 | active |
| ITGB1BP1 (GeneID 9270) | -1.96 | active |
| SP6 (GeneID 80320) | -1.11 | inactive |
| SP6 (GeneID 80320) | -0.93 | inactive |
| SP6 (GeneID 80320) | -0.9 | inactive |
| SP6 (GeneID 80320) | -1.03 | inactive |
| ARHGAP32 (GeneID 9743) | 0.36 | inactive |
| ARHGAP32 (GeneID 9743) | -1.08 | inactive |
| ARHGAP32 (GeneID 9743) | -1.34 | inactive |
| ARHGAP32 (GeneID 9743) | -1.45 | inactive |
| SUV39H1 (GeneID 6839) | -1.32 | inactive |
| SUV39H1 (GeneID 6839) | -1.08 | inactive |
| SUV39H1 (GeneID 6839) | -1.21 | inactive |
| SUV39H1 (GeneID 6839) | -0.41 | inactive |
| GRN (GeneID 2896) | 0.71 | inactive |
| GRN (GeneID 2896) | 0.44 | inactive |
| GRN (GeneID 2896) | -1.31 | inactive |
| GRN (GeneID 2896) | -1.72 | active |
| ANKRD50 (GeneID 57182) | 0.52 | inactive |
| ANKRD50 (GeneID 57182) | -0.65 | inactive |
| ANKRD50 (GeneID 57182) | 0.4 | inactive |
| ANKRD50 (GeneID 57182) | 0.77 | inactive |
| CCDC27 (GeneID 148870) | 0.81 | inactive |
| CCDC27 (GeneID 148870) | -0.43 | inactive |
| CCDC27 (GeneID 148870) | 0.65 | inactive |
| CCDC27 (GeneID 148870) | 1.9 | inactive |
| IFNA7 (GeneID 3444) | -0.39 | inactive |
| IFNA7 (GeneID 3444) | -0.6 | inactive |
| IFNA7 (GeneID 3444) | -0.46 | inactive |
| IFNA7 (GeneID 3444) | -0.66 | inactive |
| PTAFR (GeneID 5724) | -0.31 | inactive |
| PTAFR (GeneID 5724) | -0.22 | inactive |
| PTAFR (GeneID 5724) | 1.45 | inactive |
| PTAFR (GeneID 5724) | -0.23 | inactive |
| ESF1 (GeneID 51575) | -0.48 | inactive |
| ESF1 (GeneID 51575) | 0.81 | inactive |
| ESF1 (GeneID 51575) | -0.02 | inactive |
| ESF1 (GeneID 51575) | 1.15 | inactive |

13 entries already listed, ordered by “TNF reporter robust z-score”, highest first:
| target gene | TNF reporter robust z-score | Outcome |
| --- | --- | --- |
| BCO1 (GeneID 53630) | 1.09 | inactive |
| BCO1 (GeneID 53630) | 0.82 | inactive |
| BCO1 (GeneID 53630) | 0.77 | inactive |
| U2AF1 (GeneID 7307) | 0.73 | inactive |
| U2AF1 (GeneID 7307) | 0.15 | inactive |
| U2AF1 (GeneID 7307) | -0.24 | inactive |
| PCARE (GeneID 388939) | -0.31 | inactive |
| PCARE (GeneID 388939) | -0.33 | inactive |
| WRN (GeneID 7486) | -0.44 | inactive |
| WRN (GeneID 7486) | -0.48 | inactive |
| U2AF1 (GeneID 7307) | -0.65 | inactive |
| WRN (GeneID 7486) | -0.76 | inactive |
| WRN (GeneID 7486) | -0.91 | inactive |
